For orientation: AC50 means the concentration giving half of the maximal activity seen.

Molecules are shown by their SMILES. Some of the results follow. Further columns of the screen follow, without active or inactive calls. Most of these compounds were active or inconclusive in the main read-out, so they are no random draw. The note in brackets gives the kind of curve behind each potency; many fits are weak.

A short description of this experiment: qHTS Assay to Find Inhibitors of Chronic Active B-Cell Receptor Signaling. The conditions noted are these: ABC-DLBCL IkBa-CBG/CBR reporter, luminescence ratio (green luciferase fused to IkBa over red control in TMD8 lymphoma cells), 4 h. In outline: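 Doxycycline induced both beetle luciferases in TMD8 lymphoma cells; IKK-driven degradation limits the IkappaBalpha-fused green signal, while red luminescence normalises for cell number and nonspecific effects. Compounds tested up to 46 uM, 4 hrs.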
(In general: In qHTS, concentration-response curves come from the screen itself.)

The mark [1] stands for this setting: measured here: CBR red luminescence, cell number.
Setting [2] is: measured here: IkBa-CBG green luminescence.

As to `C/C(=N\NC(=O)c1ccco1)c1cc2ccccc2o1`, under setting [1], the half-maximal activity concentration (AC50) was 32.6 µM [falling, single point].

For the molecule `Cn1c(NC(=O)c2ccccc2)nc2ccccc21`, under setting [1], the AC50 was 11.2 µM [falling, partial curve].

Regarding `CCN1C(=O)c2cccc3c(S(=O)(=O)NCc4cccnc4)ccc1c23`, the AC50 under setting [1] is 29.1 µM [rising, single point].

In the case of `Cc1ccc(S(=O)(=O)/N=C(/Nc2ccc([N+](=O)[O-])cc2)c2ccccc2)cc1`, under setting [1], the concentration at half-maximal activity (AC50) is 1.41 µM [rising, partial curve, poor fit].

Turning to `COc1ccc(C2Nc3ccccc3C(=O)N2NS(=O)(=O)c2ccc(C)cc2)cc1` (stereo not given), under setting [1], the AC50 was 6.31 µM [rising, single point].

`CCOC(=O)c1c(C)[nH]c(NC(=O)NNC(=O)c2ccccc2Cl)c1C`: the AC50 under setting [1] was 13 µM [falling, partial curve, poor fit].

`O=C1N[C@@H](c2ccccc2)COC(=O)[C@H](Cc2ccc(F)cc2)CC/C=C/C[C@@H]1CC(=O)N(CCO)Cc1ccccc1`: under setting [1], the AC50 was 25.9 µM [falling, single point].

Regarding `Nc1c(C(=O)Nc2ccc(Cl)cc2)sc2nc(N3CCOCC3)c3c(c12)CCCC3`, the half-maximal activity concentration (AC50) under setting [1] is 7.08 µM [falling, partial curve].

`COc1cc(C(=O)OCCCN=C2NS(=O)(=O)c3ccccc32)cc(OC)c1OC`: the AC50 under setting [1] was 3.55 µM [rising, single point].

In the case of `COC(=O)CCCCCN1C(=O)/C(=C\c2ccncc2)SC1=S`, the half-maximal activity concentration (AC50) under setting [1] was 2 µM [falling, full curve].

For the molecule `COc1ccc(NC(=O)c2cc(-c3ccco3)on2)c(OC)c1`, the AC50 under setting [1] is 5.62 µM [rising, single point].

As to `Cc1ccc(-c2csc3ncnc(SCC(=O)O)c23)cc1`, under setting [1], the AC50 was 31.6 µM [falling, single point].

In the case of `CC(=O)C(Cc1ccccc1)NC(=O)COC(=O)c1cccc(C)c1[N+](=O)[O-]` (stereo not given), the half-maximal activity concentration (AC50) under setting [1] is 0.0366 µM [rising, full curve, poor fit].

Turning to `O=C(Nc1ccc2ccccc2c1)Nc1ccc2snnc2c1`, under setting [1], the AC50 was 32.6 µM [falling, single point].

Regarding `CCn1nc(NC(=O)Cc2ccc(OC)cc2)c2cc3cccc(C)c3nc21`, under setting [1], the half-maximal activity concentration (AC50) is 11.2 µM [falling, partial curve, poor fit].

Take `CC(=O)c1ccc(N=Nc2ccc(N(C)C)cc2)cc1`: under setting [1], the AC50 is 35.5 µM [rising, partial curve, poor fit].

Take `Cc1c(C(=O)NCCc2ccc3c(c2)OCCO3)oc2ccccc12`: under setting [1], the AC50 was 6.51 µM [falling, partial curve].

`CC(=O)Nc1cccc(NC(=O)c2ccc([N+](=O)[O-])cc2Cl)c1`: under setting [1], the AC50 was 16.4 µM [rising, partial curve, poor fit].

On to `Fc1ccc(NC(=S)NCc2cccs2)cc1`, for which the concentration at half-maximal activity (AC50) under setting [1] was 29.1 µM [falling, single point].

As for `O=C(CN1C(=O)S/C(=C\c2cccc(Cl)c2)C1=O)NCCCn1ccnc1`, the AC50 under setting [1] was 17.8 µM [falling, single point].

Consider `CCN1CCN(C(=O)CCc2nnc(CCc3ccc(OC)cc3)o2)[C@@H](C)C1=O`, for which the half-maximal activity concentration (AC50) under setting [1] was 14.1 µM [falling, single point].

For the molecule `Cc1ccc(-n2ncc3c(=O)[nH]c(SCC(=O)NCC4CCCO4)nc32)cc1` (stereo not given), the AC50 under setting [1] is 14.6 µM [falling, partial curve, poor fit].

In the case of `Cc1ccc(C(=O)NC2CCC(C)CC2)s1` (stereo not given), the AC50 under setting [1] is 14.6 µM [falling, partial curve].

On to `FC(F)(F)c1ccc2c(c1)nc1n2CCCC1`, for which, under setting [1], the half-maximal activity concentration (AC50) is 10 µM [rising, partial curve].

As to `CCSc1nnc(NC(=O)CSC2=NCCS2)s1`, under setting [1], the AC50 is 35.5 µM [falling, single point].

For `COc1ccc(/C(N)=N/OC(=O)CCC2CCCC2)cc1OC`, under setting [1], the AC50 was 1.78 µM [rising, partial curve, poor fit].

In the case of `Brc1c(-c2ccccc2)nc2n1Cc1ccccc1-2`, the concentration at half-maximal activity (AC50) under setting [2] is 12.6 µM [rising, partial curve, poor fit].

Take `C/C(=N\NC(=O)c1cc(C)nc2ccccc12)c1ccccn1`: the AC50 under setting [1] is 7.31 µM [rising, single point].

Turning to `COc1ccc(NC(=O)Nc2ccccc2SC)cc1`, the half-maximal activity concentration (AC50) under setting [1] is 2.82 µM [falling, full curve].

As to `CCc1cc(C=NC2CCCCC2)c(O)s1`, under setting [1], the AC50 is 2.51 µM [rising, partial curve].

As to `CC1=NNC(=O)C1Cc1ccccc1C` (stereo not given), under setting [1], the AC50 was 3.55 µM [rising, full curve, poor fit].

With `Cc1ccc(CC(=O)Nc2cccc(C#N)c2)cc1`, the AC50 under setting [1] is 17.8 µM [rising, partial curve, poor fit].

On to `C=CCC[C@H](Cc1ccc(F)cc1)C(=O)OC[C@@H](Cc1c[nH]c2ccccc12)NC(=O)[C@H](CC=C)CC(=O)NCCO`, for which the AC50 under setting [1] was 20.6 µM [falling, single point].

As to `CN(Cc1nc(Cc2ccccc2F)no1)[C@@H]1CS(=O)(=O)C[C@H]1O`, the AC50 under setting [1] was 0.631 µM [rising, full curve, poor fit].

In the case of `COC(=O)[C@@H](NC(=O)Nc1ccc2c(c1)OCCO2)C(C)C`, the half-maximal activity concentration (AC50) under setting [1] is 11.2 µM [rising, partial curve, poor fit].

As to `COC(=O)c1cc(OC)c(OC)cc1NC(=O)C(C)Sc1ccc(C)cc1` (stereo not given), the AC50 under setting [1] is 29.1 µM [rising, single point].

As for `O=C(COc1ccc(Cl)cc1Br)Nc1ccccc1N1CCCC1`, the concentration at half-maximal activity (AC50) under setting [1] was 25.9 µM [rising, single point].

On to `Cc1ccc(-c2noc(C3CCCN(S(=O)(=O)c4ccc5ccccc5c4)C3)n2)o1` (stereo not given), for which the AC50 under setting [1] was 3.26 µM [rising, full curve, poor fit].

Consider `COC(=O)c1nc(-c2ccccc2)oc1N(C)C`, for which the AC50 under setting [1] is 29.1 µM [rising, single point].

In the case of `N[C@@H](Cc1ccccc1)c1nnc(SCc2ccccc2F)o1`, the concentration at half-maximal activity (AC50) under setting [1] is 17.8 µM [rising, partial curve, poor fit].

Regarding `O=C(c1cc(F)cc2c1OCOC2)N1CCN(c2ccc(F)cc2)CC1`, the AC50 under setting [1] was 0.501 µM [rising, full curve, poor fit].

Take `O=C(NCc1csc(-c2cccs2)n1)Nc1cccc(Cl)c1`: the concentration at half-maximal activity (AC50) under setting [1] is 31.6 µM [rising, single point].

On to `O=c1[nH]c(C2CCN(S(=O)(=O)c3ccccc3F)CC2)nc2c1nnn2Cc1ccc(F)cc1`, for which, under setting [1], the half-maximal activity concentration (AC50) was 12.6 µM [falling, partial curve, poor fit].

As for `CCn1c(O)c(N=NC(=O)Cc2csc(N3CCOCC3)n2)c2ccccc21`, the AC50 under setting [1] is 17.8 µM [falling, single point].

With `CCc1cccc(NC(=O)C2CCCN2S(=O)(=O)c2ccccc2C(F)(F)F)c1` (stereo not given), the half-maximal activity concentration (AC50) under setting [1] is 20.6 µM [falling, single point].

Consider `COc1ccc(C2C(C(C)=O)=C(O)C(=O)N2Cc2ccccc2)c(OC)c1` (stereo not given), for which the AC50 under setting [1] is 35.5 µM [rising, single point].

For `CSc1ncccc1C(=O)Nc1nc(C(C)(C)C)cs1`, the AC50 under setting [1] was 15.8 µM [falling, partial curve].

As to `COC(=O)c1ccc(O)c(Sc2cc(C(=O)OC)ccc2O)c1`, the AC50 under setting [1] was 29.1 µM [falling, single point].

In the case of `CCC(OC(=O)C1=Cc2ccccc2OC1)C(=O)NC1CCCC1` (stereo not given), the concentration at half-maximal activity (AC50) under setting [1] was 5.8 µM [rising, partial curve, poor fit].

As for `CC(C)=CC(=O)Nc1nnc(-c2ccccc2)s1`, the AC50 under setting [1] was 0.0517 µM [rising, full curve].

In the case of `CS(=O)(=O)N(CC(=O)NCC1CCCO1)c1cccc([N+](=O)[O-])c1` (stereo not given), the AC50 under setting [1] was 3.55 µM [rising, single point].

`O=C(CNC(=O)c1ccc(Cl)cc1Cl)NCC1CCCO1` (stereo not given): under setting [1], the AC50 is 2.51 µM [rising, full curve, poor fit].

For the molecule `CCN(CC(=O)Nc1ccccc1C(F)(F)F)C(=O)c1cccc(N2C(=O)CCC2=O)c1`, the AC50 under setting [1] is 29.1 µM [rising, single point].

For `Cn1c(=O)[nH]c(=O)c2c1nc(NCCCn1ccnc1)n2Cc1cccc(Br)c1`, the AC50 under setting [1] is 0.0291 µM [rising, full curve, poor fit].

`CCC(C)(C)n1nnnc1C(C(C)C)N1CCSCC1` (stereo not given): under setting [1], the AC50 is 0.092 µM [rising, partial curve, poor fit].

`Fc1ccc(COc2cccc3cccnc23)cc1`: the concentration at half-maximal activity (AC50) under setting [1] was 35.5 µM [falling, single point].

`CCOc1cc(C(=O)N2CCc3cc(OC)c(OC)cc3C2)ccc1OC(F)F`: the half-maximal activity concentration (AC50) reads like this: under setting [1], 3.16 µM [rising, full curve, poor fit]; under setting [2], 2.82 µM [falling, full curve].

Consider `CCC(=O)c1ccc(OCC(=O)OCC(=O)Nc2ccc3c(c2)OCCO3)cc1`, for which, under setting [1], the AC50 is 5.8 µM [rising, full curve, poor fit].

With `O=C(O)CC(NC(=O)c1cccc(F)c1)c1ccc(OC2CCCC2)cc1` (stereo not given), the AC50 under setting [1] is 17.8 µM [rising, single point].

For `C#CCOCCOCCOCCNc1nc(N2CCN(C(=O)CCCCCCCCCCNC(=O)Cn3cc(C[C@@H](C)O)nn3)CC2)nc(N2CCN(C(=O)CCCCCCCCCCNC(=O)[C@H](CO)n3cc(CCCSC)nn3)CC2)n1`, under setting [1], the AC50 is 29.1 µM [rising, single point].

Take `COc1ccc2nc(N(CCN(C)C)C(=O)/C=C/c3cccs3)sc2c1`: the AC50 under setting [1] is 35.5 µM [falling, single point].

As for `CCc1cccc(NC(=S)N(CCCN2CCOCC2)C(C)c2cc3cccc(OC)c3o2)c1` (stereo not given), under setting [1], the concentration at half-maximal activity (AC50) is 12.6 µM [falling, single point].

Consider `CCC(C)Sc1cc(-c2nc3ccc(Cl)cn3c2NC2CCCCC2)ccc1OC` (stereo not given), for which the AC50 under setting [1] was 5.8 µM [falling, partial curve, poor fit].

For `CCOC(=O)c1ccc2c(c1)[nH]c(=S)n2CC`, under setting [1], the AC50 was 11.2 µM [rising, single point].

(Values after PubChem BioAssay AID493014 (National Center for Advancing Translational Sciences (NCATS), 2011).)
